According to article PMC3540084:
These are yes or no findings as the source states them, for the method shown. Binding seen in cells or lysates may run through a third protein. Some results given as binding are weak or reduced against the parent protein; the word gives no strength. Sequences can lack the tags named with a protein. Values belong to the binder of their own block, whether it stands above or below them.

Legend:
Assay in all cases: co-IP; cytosols of cultured HL-1 cardiomyocytes after 6 hr hypoxia; polyclonal Abs to IL-1Ra, caspases or control IL-1beta coupled to Sepharose beads plus protein A/G; precipitates washed in PBS; Western blot with monoclonal Abs; IP compared to unbound (free) supernatant proteins
[1] = target: T1, secreted IL-1Ra isoform (mouse interleukin-1 receptor antagonist) (mouse (endogenous in HL-1)) (UniProt P25085)
T1 sequence: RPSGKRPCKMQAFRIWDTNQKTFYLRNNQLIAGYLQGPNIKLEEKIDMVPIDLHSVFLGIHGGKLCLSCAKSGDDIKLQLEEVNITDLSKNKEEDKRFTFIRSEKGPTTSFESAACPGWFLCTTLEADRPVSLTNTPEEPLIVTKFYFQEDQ

[2] = target: T2, caspase-6 (mouse) (mouse (endogenous in HL-1)) (UniProt O08738)
T2 sequence: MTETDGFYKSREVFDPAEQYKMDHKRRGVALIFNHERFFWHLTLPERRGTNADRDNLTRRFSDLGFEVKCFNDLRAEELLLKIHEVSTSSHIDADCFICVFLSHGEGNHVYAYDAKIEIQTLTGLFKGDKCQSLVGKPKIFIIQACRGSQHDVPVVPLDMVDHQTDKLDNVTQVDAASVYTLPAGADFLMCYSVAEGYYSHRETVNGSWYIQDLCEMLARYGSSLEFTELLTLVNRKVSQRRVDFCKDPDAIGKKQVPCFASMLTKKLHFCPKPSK

[3] = target: T3, caspase-7 (mouse) (mouse (endogenous in HL-1)) (UniProt P97864)
T3 sequence: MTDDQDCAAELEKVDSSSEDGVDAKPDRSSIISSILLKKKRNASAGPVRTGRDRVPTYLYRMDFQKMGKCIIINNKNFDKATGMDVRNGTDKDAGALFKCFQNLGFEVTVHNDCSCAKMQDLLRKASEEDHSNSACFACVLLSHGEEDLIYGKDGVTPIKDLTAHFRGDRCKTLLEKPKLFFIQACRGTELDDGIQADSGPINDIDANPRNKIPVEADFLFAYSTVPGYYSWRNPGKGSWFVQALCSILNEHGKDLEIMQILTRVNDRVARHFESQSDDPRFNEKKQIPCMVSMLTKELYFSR

[4] = target: T4, caspase-3 (mouse) (mouse (endogenous in HL-1)) (UniProt P70677)
T4 sequence: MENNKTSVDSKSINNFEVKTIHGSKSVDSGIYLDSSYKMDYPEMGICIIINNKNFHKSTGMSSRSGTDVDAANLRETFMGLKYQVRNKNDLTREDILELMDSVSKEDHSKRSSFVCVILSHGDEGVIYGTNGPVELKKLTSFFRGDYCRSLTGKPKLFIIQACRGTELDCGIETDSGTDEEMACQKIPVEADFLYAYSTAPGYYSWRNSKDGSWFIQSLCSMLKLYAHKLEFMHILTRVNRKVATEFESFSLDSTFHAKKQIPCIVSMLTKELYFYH

- binding [1]: no binding
B1: IL-1R1 ancillary protein (mouse) (receptor, UniProt Q61730 21-570)
chain: SERCDDWGLDTMRQIQVFEDEPARIKCPLFEHFLKYNYSTAHSSGLTLIWYWTRQDRDLEEPINFRLPENRISKEKDVLWFRPTLLNDTGNYTCMLRNTTYCSKVAFPLEVVQKDSCFNSAMRFPVHKMYIEHGIHKITCPNVDGYFPSSVKPSVTWYKGCTEIVDFHNVLPEGMNLSFFIPLVSNNGNYTCVVTYPENGRLFHLTRTVTVKVVGSPKDALPPQIYSPNDRVVYEKEPGEELVIPCKVYFSFIMDSHNEVWWTIDGKKPDDVTVDITINESVSYSSTEDETRTQILSIKKVTPEDLRRNYVCHARNTKGEAEQAAKVKQKVIPPRYTVELACGFGATVFLVVVLIVVYHVYWLEMVLFYRAHFGTDETILDGKEYDIYVSYARNVEEEEFVLLTLRGVLENEFGYKLCIFDRDSLPGGIVTDETLSFIQKSRRLLVVLSPNYVLQGTQALLELKAGLENMASRGNINVILVQYKAVKDMKVKELKRAKTVLTVIKWKGEKSKYPQGRFWKQLQVAMPVKKSPRWSSNDKQGLSYSSLKNV

- binding [2]: binds weakly
- binding [3]: binds weakly
- binding [4]: binds
B2: secreted IL-1Ra isoform (mouse interleukin-1 receptor antagonist) (protein, UniProt P25085 27-178)
chain: T1 sequence
